Laboratory results: PMC12120744
These are yes or no findings as the source states them, for the method shown. Binding seen in cells or lysates may run through a third protein. Tags and fused reporters may be left off the sequences shown.

Target: T1, Flag-RNF112 (UniProt Q9ULX5)
T1 sequence: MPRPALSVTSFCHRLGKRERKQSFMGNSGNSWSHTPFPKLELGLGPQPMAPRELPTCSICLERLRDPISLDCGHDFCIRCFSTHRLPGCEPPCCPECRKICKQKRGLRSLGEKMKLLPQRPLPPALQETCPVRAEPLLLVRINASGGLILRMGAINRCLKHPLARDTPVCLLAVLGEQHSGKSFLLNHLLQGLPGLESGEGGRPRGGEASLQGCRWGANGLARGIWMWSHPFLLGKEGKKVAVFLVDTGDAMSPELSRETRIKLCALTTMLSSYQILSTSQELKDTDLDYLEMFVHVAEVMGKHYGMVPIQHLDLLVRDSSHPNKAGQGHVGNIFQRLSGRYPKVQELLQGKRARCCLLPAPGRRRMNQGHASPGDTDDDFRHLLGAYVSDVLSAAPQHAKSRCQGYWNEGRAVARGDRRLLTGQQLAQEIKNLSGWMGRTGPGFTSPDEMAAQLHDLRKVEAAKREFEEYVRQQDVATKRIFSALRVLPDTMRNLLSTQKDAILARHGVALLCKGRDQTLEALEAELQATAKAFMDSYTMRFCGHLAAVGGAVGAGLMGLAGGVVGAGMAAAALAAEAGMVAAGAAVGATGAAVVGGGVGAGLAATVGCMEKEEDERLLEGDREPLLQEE
Assay: co-IP; 293T cells transfected with the respective plasmids for 48 h, MG132 (10 µM) for 8 h; lysis in IP buffer 1 h at 4 °C; anti-Flag or anti-HA antibody overnight at 4 °C, magnetic beads 2 h; Western blot

binding: no binding
Substance: N segment of c-Myc with deletion of the MB II domain (domain or fragment)
